Source: ChEMBL document CHEMBL3988442, “University of Dundee, Small-Polar-MMV Screening Library” (2021).

Results are given as percent effect. How 0% and 100% were set is not recorded. Most values in the screen are low, and negative values occur. This is an unselected part of the compounds tested.

Mtb cholesterol medium: 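Whole-cell growth test on Mycobacterium tuberculosis, read after 4 days in a medium based on cholesterol and the lipid DPPC; the read-out is not stated. Tested at 500 µM. Direction is inferred from retests: higher values go with more growth inhibition. Size under these conditions: about 18,000 compounds, about 900 of them at 50% or above in at least one test.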
Mtb glucose medium: 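Growth of Mycobacterium tuberculosis over 3 days (7H9 medium with glucose and tyloxapol); the read-out is not stated. Compounds at 500 µM. The record gives no direction; compounds that gave an IC50 in retests scored well above the rest, so higher reads as more growth inhibition. Of about 18,000 compounds tested this way, about 1,400 (7.9%) reached 50% or more in at least one test.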

| structure | Mtb cholesterol medium | Mtb glucose medium |
|---|---|---|
| `Cc1ccc(NC(=O)N[C@@H]2CNCC[C@H]2O)cc1F` | 11.8 | 35.23 |
| `CC(=O)NC1CCCN(C(=O)NC(C2CC2)C2CC2)C1` (stereo not shown) | -0.6827 | 12.56 |
| `COc1cc(C(=O)NC(C)CC#N)ccc1C` (stereo not shown) | 60.42 | 74.61 |
| `CC1(C)CCNCCS1(=O)=O` | 19.64 | 0.07775 |
| `COCCCC1CCCN(CCn2cncn2)C1` (stereo not shown) | 9.793 | 12.42 |
| `CN(C)C(CNC(=O)c1ncccc1O)c1ccco1` (stereo not shown) | 13.1 | 6.02 |
| `CCN(C)CCNC(=O)c1cc(-c2ccccc2)[nH]n1` | -7.72 | 21.72 |
| `NC(=O)C1CN(C/C=C/c2ccc(F)cc2)CCO1` (stereo not shown) | 33.3 | 44.99 |
| `Cc1nn(C)c(C)c1C1CCCN1` (stereo not shown) | -10.31 | -6.319 |
| `CC(C1CCN(c2nc(CO)cs2)CC1)N(C)C` (stereo not shown) | 2.136 | 2.606 |
| `CC(NCC1(C)OCCO1)c1cccc(F)c1` (stereo not shown) | 9.953 | 0.4142 |
| `CC(CNCC(F)(F)CO)c1ccccc1` (stereo not shown) | 54.59 | 40.49 |
| `CC(C)Nc1nc(C(=O)NCc2cccnc2)cs1` | 21.62 | 28.36 |
| `CC(C)CC(O)C1CCNCC1` (stereo not shown) | -3.072 | 4.879 |
| `NC1CCN(c2ncccc2F)C1` (stereo not shown) | 27.18 | 73.17 |
| `O=C1OCCC1Sc1nnc(Nc2ccccc2)s1` (stereo not shown) | 2.732 | 54.16 |
| `CC(C)CC(C)Oc1cc(CNS(N)(=O)=O)ccn1` (stereo not shown) | 38.59 | 56.82 |
| `NCC(=O)NCCc1c[nH]c2ccccc12` | 0.2214 | 19.29 |
| `COCCN1CCC(CNC(=O)N2CCC(C)CC2)C1` (stereo not shown) | 64.62 | 57.15 |
| `Cc1cc(C)cc(C(=O)N2CCN(CCC#N)CC2)c1` | 7.438 | 11.58 |
| `CCCS(=O)(=O)NCC(O)Cc1ccccc1` (stereo not shown) | 46.75 | 69.93 |
| `CC(=O)N1CCCN(c2nc3ccccc3[nH]2)CC1` | -23.51 | -11.14 |
| `CS(=O)(=O)N1CCCc2c(F)cccc21` | -13.11 | -5.075 |
| `CNC(=O)CCNS(=O)(=O)c1ccc(C(C)=O)cc1` | 15.06 | 5.591 |
| `CC(=O)NCc1cn2ccsc2n1` | 3.22 | 16.32 |
| `CC(=O)N1CCOc2ccccc21` | -12.48 | -4.67 |
| `O=C(CCc1ccccn1)N[C@@H]1CCNC[C@H]1O` | -8.435 | 16.68 |
| `CCN1CCC(CC(=O)NCCn2cccc2)CC1` | 2.536 | 0.1865 |
| `NCC1(O)CCS(=O)(=O)C1` (stereo not shown) | 5.996 | 2.914 |
| `O=C1NC2(CCOCC2)Nc2ccc(Cl)cc21` | 10.99 | 26.7 |
| `NC1CCN(CCCc2ccccc2)C1=O` (stereo not shown) | -13.79 | -6.546 |
| `CS(=O)(=O)CC1(CNc2ccc(Br)cn2)CC1` | -1.007 | 18.24 |
| `N[C@@H]1CC[C@@H]1NC(=O)Cc1c[nH]c2ccccc12` | 29.8 | 47.68 |
| `O=C(CNc1ncccn1)NCCc1ccccc1` | -3.208 | -12.33 |
| `NCC(CO)Cc1cccc(Br)c1` (stereo not shown) | 38.88 | 49.36 |
| `c1ccc(N2CCCNCC2)nc1` | -0.4163 | 9.475 |
| `Cc1cc(NC(=O)c2ccc(Cl)cn2)nc(=O)[nH]1` | -0.5938 | -5.952 |
| `CC(=O)c1ccc(F)cc1NCC(=O)NC1CC1` | -0.05389 | 1.13 |
| `CCOCCC1(N)CCCC1` | 12.51 | 9.705 |
| `OCC(O)CNc1ccnc2ccc(Cl)cc12` (stereo not shown) | -92.32 | -29.82 |
| `COc1ccncc1NCc1cccc(C#N)c1` | 7.178 | 23.97 |
| `Cc1nc(CN(C)C(=O)c2nc(C(C)C)cs2)no1` | 55.46 | 45.62 |
| `O=S(=O)(NC1CCCC1)C1CN(Cc2ccno2)C1` | 1.569 | 20.64 |
| `Cc1nnc2n1N=C(c1ccccc1)CS2` | 13.72 | 29.65 |
| `OCCCc1cccc(CCCO)c1` | 3.389 | 18.56 |
| `c1cn(C2CC2)c(CN2CCN(C3CCNC3)CC2)n1` (stereo not shown) | -28.67 | -9.122 |
| `Cn1ncc2c(N3CCCCC3)ncnc21` | 9.786 | 38.26 |
| `NCC1CC12CCOCC2` (stereo not shown) | -9.154 | -2.261 |
| `CCC(C)Nc1ccc(N2CCN(C)CC2)nc1` (stereo not shown) | -99.96 | -10.53 |
| `Cc1[nH]ncc1CCCN` | 13.7 | 9.352 |
| `CC1(C)COCCN1C(=O)c1cccc(C(N)=O)c1` | 5.257 | 4.594 |
| `C[S+]([O-])CCNC(=O)NC1CCCCC1` (stereo not shown) | 11.67 | 5.779 |
| `CC(=O)NCCNCc1ccc(C#N)cc1` | -6.498 | 7.526 |
| `FC(F)Oc1cccc(C2CNCCO2)c1` (stereo not shown) | 35.36 | 50.16 |
| `COc1ccc(CNC2CCN(C(C)=O)CC2)cc1` | 2.706 | 8.674 |
| `CCCS(=O)(=O)N(C)Cc1cccc(OCC)n1` | 46.82 | 61.91 |
| `Cc1ccc(N)c(C)n1` | 0.5644 | 2.419 |
| `COCCOC1CCN(C(=O)c2cn[nH]c2)CC1` | -2.181 | 11.59 |
| `OCCC1(NCC(F)(F)F)CCOCC1` | -9.939 | -11.47 |
| `COc1ccc(-c2noc(Cn3cncn3)n2)cn1` | 16.25 | 9.331 |
| `O=C(C1CCC1)C1CC1` | 19.72 | 13.01 |
| `CN1CC(Nc2ccc(F)cc2C#N)CCC1=O` (stereo not shown) | -21.2 | -12.11 |
| `Cc1cc(NC(=O)CN2CCCC2)n(C)n1` | -11.55 | -5.336 |
| `CC1CCN(C(=O)C2CCC(CN)CC2)CC1` (stereo not shown) | 9.722 | 24.53 |
| `COc1ccc(-c2cc(NCCO)nc(N)n2)cc1C` | 51.06 | 59.9 |
| `Cn1cc(C(=O)NC2CC(C)(C)OC2(C)C)cn1` (stereo not shown) | -2.83 | 20.28 |
| `NC(=O)CNC1CCOCC1` | -5.463 | 3.78 |
| `Cc1cc(C)cc(OCC(=O)N2CCOCC2)c1` | 37.08 | 55.68 |
| `CS(=O)(=O)c1cccc(Cl)c1C(N)=O` | -0.5444 | 4.572 |
| `NS(=O)(=O)c1ccc(C(=O)N2CCOCC2)cc1` | -11.52 | -5.603 |
| `Cn1cc(NC(=O)CCc2ccccn2)cn1` | -22.59 | -5.994 |
| `Cc1cccc(CC(=O)N2CCn3cnnc3C2)c1` | 46.49 | 58.91 |

The first 4 entries again:

- Cc1ccc(NC(=O)N[C@@H]2CNCC[C@H]2O)cc1F : Mtb cholesterol medium: 11.8%; Mtb glucose medium: 35.23%
- CC(=O)NC1CCCN(C(=O)NC(C2CC2)C2CC2)C1 (stereo not shown) : Mtb cholesterol medium: -0.6827%; Mtb glucose medium: 12.56%
- COc1cc(C(=O)NC(C)CC#N)ccc1C (stereo not shown) : Mtb cholesterol medium: 60.42%; Mtb glucose medium: 74.61%
- CC1(C)CCNCCS1(=O)=O : Mtb cholesterol medium: 19.64%; Mtb glucose medium: 0.07775%